According to article PMC8068134 (Toxins, 2021):

Test system: Paucibacter toxinivorans (2C20)
Conditions: Individually added cyanopeptide, 10 μg/mL, 7 days of incubation

CC[C@H](C)[C@@H]1NC(=O)[C@@H]2CSC(=N2)[C@@H]([C@@H](C)CC)NC(=O)c2csc(n2)CNC(=O)[C@H]2N=C1O[C@@H]2C [AC-A, aerucyclamide A]
Biodegradation over 7 days: completely degraded

CSCC[C@@H]1NC(=O)[C@@H]2CSC(=N2)[C@@H](Cc2ccccc2)NC(=O)c2csc(n2)CNC(=O)[C@H]2N=C1O[C@@H]2C [AC-D, aerucyclamide D]
Biodegradation over 7 days: completely degraded
